Reference: patent publication US8168638B2, “Pyrazinecarboxamide derivatives and plant disease controlling agents containing the same” (Nihon Nohyaku Co., Ltd., priority 2005, dated 2012)
Some entries share one result that the patent states for a list of compounds.

Legend:
Type in all cases: in vivo
[1] = test system: Venturia inaequalis; test: Test on the controlling effect against apple tree scab; settings: apple seedling (Ohrin), foliar application, application rate 50 mL, 14 days after inoculation
[2] = test system: Botrytics cinerea; test: Test on the controlling effect against gray mold of cucumber plant; settings: cucumber plant (Suyou), foliar application, active-ingredient concentration 200 ppm, application rate 50 mL, 7 days after inoculation
[3] = test system: Blumeria graminis f. sp. hordei; test: Test on the controlling effect against powdery mildew of barley plant; settings: barley plant (Kantoh No. 6), foliar application, application rate 50 mL, 7 days after inoculation
Excerpt: Equation (1): Protective value (%)=A/B×100 (1) where: • A; [(Ratio of the afflicted spotted leaf surface area in non-treated section to the total leaf surface area)−(Ratio of the afflicted spotted leaf surface area in treated section to the total leaf surface area)] • B; (Ratio of the afflicted spotted leaf surface area in non-treated section to the total leaf surface area) Criteria of Judgment: 0: Less than […] in protective value 1: 10 to 19% in protective value 2: 20 to 29% in protective value 3: 30 to 39% in protective value 4: 40 to 49% in protective value 5: 50 to 59% in protective value 6: 60 to 69% in protective value 7: 70 to 79% in protective value 8: 80 to 89% in protective value 9: 90 to 99% in protective value 10: 100% in protective value A one-leaf aged barley plant (the cultivar: Kantoh No. 6) raised as a seedling in a pot of 6 cm in diameter was subjected to foliar application with a diluted emulsion of the emulsifiable concentrate of the compound of the present invention prepared in accordance with Agrochemical Formulation Example 1, which diluted emulsion was produced by diluting the concentrate with water to the specifically determined volume. On the following day after the application, the barley plant was inoculated by sprinkling with spores as obtained from barley plants afflicted with the causal fungus of powdery mildew (Blumeria graminis f. sp. hordei), and maintained at 20° C. under humid conditions. Seven days after the inoculation, the controlling effect was assessed according the criteria of judgment as set forth in Test Example 1.

[4] = test system: Puccinia recondita; test: Test on the controlling effect against brown leaf rust of wheat plant; settings: wheat plant (Hokushin), foliar application, application rate 50 mL, 7 days after inoculation
[5] = active-ingredient concentration 50 ppm
[6] = active-ingredient concentration 200 ppm
[7] = active-ingredient concentration 10 ppm

O=C(Nc1ccccc1-c1ccc(F)cc1)c1nccnc1Cl [1-5]
10 (100% in protective value): controlling effect assessed according to the criteria of judgment (protective value) [1, 5] | controlling effect assessed according to the criteria of judgment (protective value) [2] | controlling effect assessed according to the criteria of judgment [3, 6] | controlling effect assessed according to the criteria of judgment [4, 6]

O=C(Nc1ccccc1-c1ccc(OC(F)(F)F)cc1)c1nccnc1Cl [1-14]
10 (100% in protective value): controlling effect assessed according to the criteria of judgment (protective value) [1, 5] | controlling effect assessed according to the criteria of judgment (protective value) [2] | controlling effect assessed according to the criteria of judgment [3, 6] | controlling effect assessed according to the criteria of judgment [4, 6]

CSc1ccc(-c2ccccc2NC(=O)c2nccnc2Cl)cc1 [1-15]
10 (100% in protective value): controlling effect assessed according to the criteria of judgment (protective value) [1, 5] | controlling effect assessed according to the criteria of judgment (protective value) [2] | controlling effect assessed according to the criteria of judgment [4, 6]

CON=C(C)c1ccc(-c2ccccc2NC(=O)c2nccnc2Cl)cc1 [1-18]
10 (100% in protective value): controlling effect assessed according to the criteria of judgment (protective value) [1, 5] | controlling effect assessed according to the criteria of judgment (protective value) [2]

O=C(Nc1ccccc1-c1ccc(F)c(F)c1)c1nccnc1Cl [1-21]
10 (100% in protective value): controlling effect assessed according to the criteria of judgment (protective value) [1, 7] | controlling effect assessed according to the criteria of judgment (protective value) [1, 5] | controlling effect assessed according to the criteria of judgment (protective value) [2] | controlling effect assessed according to the criteria of judgment [3, 6]

O=C(Nc1ccccc1-c1ccc(Cl)c(Cl)c1)c1nccnc1Cl [1-22]
10 (100% in protective value): controlling effect assessed according to the criteria of judgment (protective value) [1, 5] | controlling effect assessed according to the criteria of judgment (protective value) [2] | controlling effect assessed according to the criteria of judgment [3, 6]

O=C(Nc1ccccc1-c1ccc(C(F)(F)F)c(Cl)c1)c1nccnc1Cl [1-28]
10 (100% in protective value): controlling effect assessed according to the criteria of judgment (protective value) [1, 5] | controlling effect assessed according to the criteria of judgment (protective value) [2]

O=C(Nc1ccccc1-c1ccc2c(c1)OC(F)(F)O2)c1nccnc1Cl [1-31]
10 (100% in protective value): controlling effect assessed according to the criteria of judgment (protective value) [1, 5] | controlling effect assessed according to the criteria of judgment (protective value) [2] | controlling effect assessed according to the criteria of judgment [3, 6]

O=C(Nc1ccccc1-c1cc(F)cc(F)c1)c1nccnc1Cl [1-33]
10 (100% in protective value): controlling effect assessed according to the criteria of judgment (protective value) [2] | controlling effect assessed according to the criteria of judgment [3, 6]

O=C(Nc1ccccc1-c1ccc(Cl)cc1F)c1nccnc1Cl [1-36]
10 (100% in protective value): controlling effect assessed according to the criteria of judgment (protective value) [1, 5] | controlling effect assessed according to the criteria of judgment (protective value) [2] | controlling effect assessed according to the criteria of judgment [3, 6]

Cc1cc(OC(F)(F)F)ccc1-c1ccccc1NC(=O)c1nccnc1Cl [1-38]
10 (100% in protective value): controlling effect assessed according to the criteria of judgment (protective value) [2] | controlling effect assessed according to the criteria of judgment [3, 6] | controlling effect assessed according to the criteria of judgment [4, 6]

O=C(Nc1ccccc1-c1ccc(F)cc1F)c1nccnc1Cl [1-39]
10 (100% in protective value): controlling effect assessed according to the criteria of judgment (protective value) [1, 5] | controlling effect assessed according to the criteria of judgment (protective value) [2] | controlling effect assessed according to the criteria of judgment [3, 6] | controlling effect assessed according to the criteria of judgment [4, 6]

O=C(Nc1ccccc1-c1ccc(Oc2ncc(C(F)(F)F)cc2Cl)cc1)c1nccnc1Cl [1-47]
10 (100% in protective value): controlling effect assessed according to the criteria of judgment (protective value) [1, 7] | controlling effect assessed according to the criteria of judgment (protective value) [1, 5] | controlling effect assessed according to the criteria of judgment (protective value) [2] | controlling effect assessed according to the criteria of judgment [3, 6]

Cc1nccnc1C(=O)Nc1ccccc1-c1ccc(Cl)cc1 [2-6]
10 (100% in protective value): controlling effect assessed according to the criteria of judgment (protective value) [1, 5] | controlling effect assessed according to the criteria of judgment (protective value) [2]

Cc1nccnc1C(=O)Nc1ccccc1-c1ccc(F)c(F)c1 [2-21]
10 (100% in protective value): controlling effect assessed according to the criteria of judgment (protective value) [2] | controlling effect assessed according to the criteria of judgment [3, 6] | controlling effect assessed according to the criteria of judgment [4, 6]

O=C(Nc1ccccc1-c1ccc(Br)cc1)c1nccnc1C(F)(F)F [3-7]
10 (100% in protective value): controlling effect assessed according to the criteria of judgment (protective value) [2] | controlling effect assessed according to the criteria of judgment [3, 5] | controlling effect assessed according to the criteria of judgment [3, 6] | controlling effect assessed according to the criteria of judgment [4, 6]

Cc1ccc(-c2ccccc2NC(=O)c2nccnc2C(F)(F)F)cc1 [3-8]
10 (100% in protective value): controlling effect assessed according to the criteria of judgment (protective value) [2] | controlling effect assessed according to the criteria of judgment [3, 5] | controlling effect assessed according to the criteria of judgment [3, 6] | controlling effect assessed according to the criteria of judgment [4, 6]

O=C(Nc1ccccc1-c1ccc2c(c1)OC(F)(F)O2)c1nccnc1C(F)(F)F [3-31]
10 (100% in protective value): controlling effect assessed according to the criteria of judgment (protective value) [2] | controlling effect assessed according to the criteria of judgment [3, 5] | controlling effect assessed according to the criteria of judgment [3, 6] | controlling effect assessed according to the criteria of judgment [4, 5] | controlling effect assessed according to the criteria of judgment [4, 6]

O=C(Nc1ccccc1-c1cc(F)ccc1F)c1nccnc1C(F)(F)F [3-41]
10 (100% in protective value): controlling effect assessed according to the criteria of judgment (protective value) [2] | controlling effect assessed according to the criteria of judgment [3, 5] | controlling effect assessed according to the criteria of judgment [3, 6] | controlling effect assessed according to the criteria of judgment [4, 5] | controlling effect assessed according to the criteria of judgment [4, 6]

O=C(Nc1ccccc1-c1cccc(F)c1F)c1nccnc1C(F)(F)F [3-42]
10 (100% in protective value): controlling effect assessed according to the criteria of judgment (protective value) [2] | controlling effect assessed according to the criteria of judgment [3, 5] | controlling effect assessed according to the criteria of judgment [3, 6] | controlling effect assessed according to the criteria of judgment [4, 5] | controlling effect assessed according to the criteria of judgment [4, 6]

O=C(Nc1ccccc1-c1ccc(Cl)cc1)c1nccnc1C(F)F [4-6]
10 (100% in protective value): controlling effect assessed according to the criteria of judgment (protective value) [2] | controlling effect assessed according to the criteria of judgment [3, 5] | controlling effect assessed according to the criteria of judgment [3, 6] | controlling effect assessed according to the criteria of judgment [4, 5] | controlling effect assessed according to the criteria of judgment [4, 6]
